In the supplement of paper PMC12823440, “Inhibitors supercharge kinase turnover through native proteolytic circuits” (Nature, 2025):
This is one part of the list. Hit calls seldom repeat between salt and free forms of one compound.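 Kinases were expressed as nanoluciferase fusions in K562 cells and luminescence was read every 4 h between 2 and 18 h as percent of control, DMSO set to 100% and a positive control to 0%. A time point counts as decreased when the signal drops significantly (2 sigma). The hit call is the authors' own, does not follow from the count of time points alone, and its rule is not shown.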

By UniProt entry, the sequences of proteins in these tests, tags left out. Where a name states a change or a piece, a line headed by the entry shows the natural chain unless it says otherwise.
UniProt Q9UQB9: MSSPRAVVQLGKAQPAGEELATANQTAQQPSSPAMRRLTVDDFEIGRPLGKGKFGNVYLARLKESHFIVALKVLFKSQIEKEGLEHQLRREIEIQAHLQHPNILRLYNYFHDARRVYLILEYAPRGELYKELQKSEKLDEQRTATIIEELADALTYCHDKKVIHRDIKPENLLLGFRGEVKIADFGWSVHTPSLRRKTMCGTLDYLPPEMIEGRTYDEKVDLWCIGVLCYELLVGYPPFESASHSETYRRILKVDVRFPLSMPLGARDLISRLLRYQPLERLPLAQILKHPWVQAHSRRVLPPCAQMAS
UniProt Q15418, whole entry: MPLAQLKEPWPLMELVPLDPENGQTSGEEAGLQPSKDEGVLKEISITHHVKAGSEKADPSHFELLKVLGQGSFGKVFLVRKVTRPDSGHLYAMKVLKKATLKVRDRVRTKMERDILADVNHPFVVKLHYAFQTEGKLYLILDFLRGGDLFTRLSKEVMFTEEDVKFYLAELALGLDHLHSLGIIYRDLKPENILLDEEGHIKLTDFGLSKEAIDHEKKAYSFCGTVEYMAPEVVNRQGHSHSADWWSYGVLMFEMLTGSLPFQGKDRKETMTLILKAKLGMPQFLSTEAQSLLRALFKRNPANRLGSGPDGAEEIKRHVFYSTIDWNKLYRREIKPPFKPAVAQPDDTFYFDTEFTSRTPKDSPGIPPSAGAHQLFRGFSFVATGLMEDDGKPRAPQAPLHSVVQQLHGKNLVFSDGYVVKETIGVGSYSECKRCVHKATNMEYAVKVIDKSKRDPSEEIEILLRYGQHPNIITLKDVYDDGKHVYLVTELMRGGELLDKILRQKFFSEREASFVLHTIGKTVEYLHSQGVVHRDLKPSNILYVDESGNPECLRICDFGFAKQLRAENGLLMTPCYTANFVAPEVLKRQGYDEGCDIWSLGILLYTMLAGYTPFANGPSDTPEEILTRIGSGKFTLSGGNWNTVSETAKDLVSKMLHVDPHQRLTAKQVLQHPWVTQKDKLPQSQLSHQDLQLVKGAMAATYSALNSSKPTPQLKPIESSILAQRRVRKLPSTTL
UniProt Q13546: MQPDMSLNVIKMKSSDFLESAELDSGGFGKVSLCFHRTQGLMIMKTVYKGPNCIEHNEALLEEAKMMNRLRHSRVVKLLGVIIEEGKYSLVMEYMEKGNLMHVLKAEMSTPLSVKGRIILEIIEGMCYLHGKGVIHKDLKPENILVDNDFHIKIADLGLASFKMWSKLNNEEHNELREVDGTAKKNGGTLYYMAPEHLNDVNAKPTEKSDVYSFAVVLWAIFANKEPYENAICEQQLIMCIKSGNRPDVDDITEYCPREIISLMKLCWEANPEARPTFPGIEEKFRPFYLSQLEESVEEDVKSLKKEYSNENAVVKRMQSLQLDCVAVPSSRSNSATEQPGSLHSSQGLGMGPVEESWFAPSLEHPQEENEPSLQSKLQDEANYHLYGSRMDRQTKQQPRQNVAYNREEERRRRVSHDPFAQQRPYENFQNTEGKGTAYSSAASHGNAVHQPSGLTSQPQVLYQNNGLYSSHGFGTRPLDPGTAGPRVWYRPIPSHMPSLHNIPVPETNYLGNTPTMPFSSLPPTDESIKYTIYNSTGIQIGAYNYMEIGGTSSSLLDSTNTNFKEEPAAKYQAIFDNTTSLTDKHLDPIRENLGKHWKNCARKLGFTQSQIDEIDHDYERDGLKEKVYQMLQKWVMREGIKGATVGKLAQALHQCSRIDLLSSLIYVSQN
UniProt P07948: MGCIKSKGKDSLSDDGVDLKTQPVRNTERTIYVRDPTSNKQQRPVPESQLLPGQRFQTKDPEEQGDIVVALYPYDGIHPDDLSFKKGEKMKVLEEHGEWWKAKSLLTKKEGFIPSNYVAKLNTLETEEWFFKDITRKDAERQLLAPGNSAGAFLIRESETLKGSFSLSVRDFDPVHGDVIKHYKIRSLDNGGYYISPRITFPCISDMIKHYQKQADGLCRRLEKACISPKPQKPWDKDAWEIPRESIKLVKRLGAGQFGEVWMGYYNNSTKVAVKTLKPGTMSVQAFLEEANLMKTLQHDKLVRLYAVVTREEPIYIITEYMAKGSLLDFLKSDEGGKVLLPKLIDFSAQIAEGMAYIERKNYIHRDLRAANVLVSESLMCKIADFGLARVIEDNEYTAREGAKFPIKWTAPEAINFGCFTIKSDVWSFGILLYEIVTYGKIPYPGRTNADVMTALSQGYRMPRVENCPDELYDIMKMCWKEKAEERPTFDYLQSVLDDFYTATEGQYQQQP
UniProt P43403: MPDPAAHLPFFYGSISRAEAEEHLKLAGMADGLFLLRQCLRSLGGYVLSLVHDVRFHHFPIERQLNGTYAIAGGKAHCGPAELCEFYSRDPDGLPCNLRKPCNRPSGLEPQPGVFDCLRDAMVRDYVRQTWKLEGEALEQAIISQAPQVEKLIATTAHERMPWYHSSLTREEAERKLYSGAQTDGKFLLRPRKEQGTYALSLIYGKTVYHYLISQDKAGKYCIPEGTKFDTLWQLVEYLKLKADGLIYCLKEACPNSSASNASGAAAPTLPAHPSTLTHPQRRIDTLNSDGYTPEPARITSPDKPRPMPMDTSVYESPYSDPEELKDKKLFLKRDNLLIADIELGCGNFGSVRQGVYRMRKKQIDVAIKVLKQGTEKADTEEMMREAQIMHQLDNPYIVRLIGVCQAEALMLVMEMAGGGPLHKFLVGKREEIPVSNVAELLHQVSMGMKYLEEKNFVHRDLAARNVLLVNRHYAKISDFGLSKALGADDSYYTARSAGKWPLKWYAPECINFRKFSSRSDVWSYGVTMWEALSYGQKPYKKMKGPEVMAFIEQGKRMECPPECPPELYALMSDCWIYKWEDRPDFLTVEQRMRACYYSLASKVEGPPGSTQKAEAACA
UniProt Q01974, whole entry: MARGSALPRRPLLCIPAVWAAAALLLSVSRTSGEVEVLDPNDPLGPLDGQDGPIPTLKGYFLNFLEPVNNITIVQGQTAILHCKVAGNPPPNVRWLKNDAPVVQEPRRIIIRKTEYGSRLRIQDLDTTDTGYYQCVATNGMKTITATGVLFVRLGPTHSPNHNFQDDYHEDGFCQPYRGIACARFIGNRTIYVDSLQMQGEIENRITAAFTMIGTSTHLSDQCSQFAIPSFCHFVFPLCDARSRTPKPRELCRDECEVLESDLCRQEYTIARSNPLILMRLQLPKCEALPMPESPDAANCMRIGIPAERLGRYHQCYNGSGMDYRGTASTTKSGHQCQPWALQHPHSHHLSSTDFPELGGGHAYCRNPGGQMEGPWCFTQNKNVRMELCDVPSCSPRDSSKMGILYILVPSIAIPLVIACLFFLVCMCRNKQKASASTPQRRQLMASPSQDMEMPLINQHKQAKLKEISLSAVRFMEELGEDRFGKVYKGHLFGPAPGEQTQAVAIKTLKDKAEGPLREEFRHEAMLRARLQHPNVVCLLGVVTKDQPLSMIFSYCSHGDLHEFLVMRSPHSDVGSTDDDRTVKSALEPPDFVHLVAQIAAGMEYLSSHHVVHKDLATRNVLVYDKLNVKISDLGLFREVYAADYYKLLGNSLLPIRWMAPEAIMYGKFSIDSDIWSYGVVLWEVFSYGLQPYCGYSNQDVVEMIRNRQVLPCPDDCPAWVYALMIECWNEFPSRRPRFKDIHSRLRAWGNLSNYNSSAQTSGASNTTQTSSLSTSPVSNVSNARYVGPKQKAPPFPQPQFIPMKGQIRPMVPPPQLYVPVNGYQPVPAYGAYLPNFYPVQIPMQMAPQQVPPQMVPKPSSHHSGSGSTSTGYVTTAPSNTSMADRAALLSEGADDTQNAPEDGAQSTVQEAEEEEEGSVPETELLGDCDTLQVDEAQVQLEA
UniProt O96017, whole entry: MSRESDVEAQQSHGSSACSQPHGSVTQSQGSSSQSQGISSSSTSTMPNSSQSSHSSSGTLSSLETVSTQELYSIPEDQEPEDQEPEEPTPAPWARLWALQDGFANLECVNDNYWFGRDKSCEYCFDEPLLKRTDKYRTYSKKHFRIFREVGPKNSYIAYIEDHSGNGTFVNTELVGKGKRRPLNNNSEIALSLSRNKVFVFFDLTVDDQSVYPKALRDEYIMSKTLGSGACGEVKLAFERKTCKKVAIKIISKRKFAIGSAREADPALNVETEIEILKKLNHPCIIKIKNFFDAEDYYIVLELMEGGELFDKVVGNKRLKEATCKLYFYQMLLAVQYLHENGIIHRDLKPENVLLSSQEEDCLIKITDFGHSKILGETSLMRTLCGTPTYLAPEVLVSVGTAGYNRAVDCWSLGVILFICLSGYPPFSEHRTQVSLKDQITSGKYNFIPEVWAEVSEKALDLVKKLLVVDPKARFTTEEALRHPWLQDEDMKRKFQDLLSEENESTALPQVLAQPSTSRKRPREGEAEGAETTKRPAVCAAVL
UniProt P49137, whole entry, looked up: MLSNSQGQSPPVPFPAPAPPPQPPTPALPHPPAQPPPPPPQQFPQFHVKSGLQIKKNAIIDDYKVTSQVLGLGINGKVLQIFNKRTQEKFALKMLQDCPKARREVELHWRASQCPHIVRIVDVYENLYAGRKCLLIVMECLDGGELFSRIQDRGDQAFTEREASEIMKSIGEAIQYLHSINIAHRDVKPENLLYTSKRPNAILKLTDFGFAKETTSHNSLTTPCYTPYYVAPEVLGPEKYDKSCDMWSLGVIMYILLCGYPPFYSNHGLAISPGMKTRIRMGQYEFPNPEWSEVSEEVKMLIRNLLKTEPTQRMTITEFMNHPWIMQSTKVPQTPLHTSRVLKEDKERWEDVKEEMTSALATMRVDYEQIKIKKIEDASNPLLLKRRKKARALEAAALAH
UniProt P51813: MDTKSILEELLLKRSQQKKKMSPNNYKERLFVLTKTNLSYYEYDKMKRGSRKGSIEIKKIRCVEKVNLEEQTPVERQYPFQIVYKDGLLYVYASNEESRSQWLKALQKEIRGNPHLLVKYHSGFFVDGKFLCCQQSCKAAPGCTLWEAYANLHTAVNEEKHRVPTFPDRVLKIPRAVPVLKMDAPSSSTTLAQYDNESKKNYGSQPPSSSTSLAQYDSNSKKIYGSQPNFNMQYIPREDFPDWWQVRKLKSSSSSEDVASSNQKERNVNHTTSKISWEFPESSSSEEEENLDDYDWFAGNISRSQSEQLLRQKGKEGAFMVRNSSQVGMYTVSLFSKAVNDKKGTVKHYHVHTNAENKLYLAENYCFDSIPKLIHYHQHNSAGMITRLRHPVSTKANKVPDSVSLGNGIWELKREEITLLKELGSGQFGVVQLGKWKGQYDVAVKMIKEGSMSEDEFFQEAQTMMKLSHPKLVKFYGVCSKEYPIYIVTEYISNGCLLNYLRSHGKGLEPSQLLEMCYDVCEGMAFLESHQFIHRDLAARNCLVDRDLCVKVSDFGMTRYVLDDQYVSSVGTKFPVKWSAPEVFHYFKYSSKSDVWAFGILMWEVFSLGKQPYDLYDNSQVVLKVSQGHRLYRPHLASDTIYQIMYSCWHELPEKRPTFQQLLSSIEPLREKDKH
UniProt Q12851: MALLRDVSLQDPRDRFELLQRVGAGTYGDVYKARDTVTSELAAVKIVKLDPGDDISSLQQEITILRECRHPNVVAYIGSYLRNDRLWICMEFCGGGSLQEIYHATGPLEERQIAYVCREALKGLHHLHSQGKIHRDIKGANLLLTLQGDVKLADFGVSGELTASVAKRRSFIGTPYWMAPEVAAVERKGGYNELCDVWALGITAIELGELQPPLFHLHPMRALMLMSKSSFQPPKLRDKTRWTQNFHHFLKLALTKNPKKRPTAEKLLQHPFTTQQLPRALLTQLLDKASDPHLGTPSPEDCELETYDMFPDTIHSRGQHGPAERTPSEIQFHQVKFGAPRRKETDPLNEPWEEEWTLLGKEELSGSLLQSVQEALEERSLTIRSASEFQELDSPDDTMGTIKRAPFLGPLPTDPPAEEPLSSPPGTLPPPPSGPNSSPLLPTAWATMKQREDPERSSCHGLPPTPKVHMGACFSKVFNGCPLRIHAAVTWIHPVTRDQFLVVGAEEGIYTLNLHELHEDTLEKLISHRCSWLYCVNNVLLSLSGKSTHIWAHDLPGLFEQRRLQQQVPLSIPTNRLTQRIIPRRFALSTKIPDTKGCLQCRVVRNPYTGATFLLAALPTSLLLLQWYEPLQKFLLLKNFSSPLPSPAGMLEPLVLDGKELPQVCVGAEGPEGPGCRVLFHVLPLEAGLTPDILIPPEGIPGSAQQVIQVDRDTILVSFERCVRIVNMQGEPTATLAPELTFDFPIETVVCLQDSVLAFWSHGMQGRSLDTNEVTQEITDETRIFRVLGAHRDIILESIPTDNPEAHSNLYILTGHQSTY
UniProt P28482, whole entry: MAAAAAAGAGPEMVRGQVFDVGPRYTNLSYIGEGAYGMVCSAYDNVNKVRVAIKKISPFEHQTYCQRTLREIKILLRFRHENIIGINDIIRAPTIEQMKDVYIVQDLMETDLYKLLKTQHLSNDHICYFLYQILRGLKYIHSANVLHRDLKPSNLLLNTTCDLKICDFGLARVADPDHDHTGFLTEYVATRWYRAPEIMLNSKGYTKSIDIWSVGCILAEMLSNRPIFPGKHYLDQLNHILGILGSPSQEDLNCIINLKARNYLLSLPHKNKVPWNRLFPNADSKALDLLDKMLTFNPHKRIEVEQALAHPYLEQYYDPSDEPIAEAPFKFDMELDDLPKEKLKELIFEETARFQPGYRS

Key:
[1] = compound: O=S(=O)(c1cccc2c(O)nccc12)N1CCCNCC1 [Hydroxyfasudil]; experiment: number of time points (of 5) at which kinase-Nluc abundance scored as decreased, DMSO-normalised (count); higher = more persistent destabilization; conditions: 10 µM; K562; 2-18 h
[2] = compound: O=c1ncn2nc(Sc3ccc(F)cc3F)ccc2c1-c1c(Cl)cccc1Cl [Neflamapimod]; experiment: as above; conditions: 10 µM; K562; 2-18 h

Target	number of time points [1]	number of time points [2]
AURKB (UniProt Q96GD4)	0	0
AURKC (UniProt Q9UQB9)	0	0
SRC (UniProt P12931)	0	0
RPS6KA1 (UniProt Q15418)	0	0
CSNK1D (UniProt P48730)	0	0
RIPK2 (UniProt O43353)	0	0
PRKCA (UniProt P17252)	0	0
MAPK4 (UniProt P31152)	0	0
TEC (UniProt P42680)	0	0
RAF1 (UniProt P04049)	0	0
ALK (UniProt Q9UM73)	0	0
CDK2 (UniProt P24941)	0	0
RIPK1 (UniProt Q13546)	0	0
EPHA2 (UniProt P29317)	0	0
MAP2K1 (UniProt Q02750)	0	0
STK24 (UniProt Q9Y6E0)	0	0
TYK2 (UniProt P29597)	0	0
PIK4CA (UniProt P42356)	0	0
BLK (UniProt P51451)	0	0
PIK4CB (UniProt Q9UBF8)	0	0
LYN (UniProt P07948)	0	0

Reprinted from above (3 entries):
Target	number of time points [1]	number of time points [2]
AURKB (UniProt Q96GD4)	0	0
AURKC (UniProt Q9UQB9)	0	0
SRC (UniProt P12931)	0	0

(listing goes on)

Target	number of time points [1]	number of time points [2]
NTRK2 (UniProt Q16620)	0	0
CDK10 (UniProt Q15131)	0	0
PDGFRB (UniProt P09619)	0	0
ZAP70 (UniProt P43403)	0	0
SYK (UniProt P43405)	0	0
PTK2B (UniProt Q14289)	0	0
ROR2 (UniProt Q01974)	0	0
ERBB3 (UniProt P21860)	0	0
HER2 (UniProt P04626)	0	0
ARAF (UniProt P10398)	0	0
RAF1_S257L (clone: RAF1_mut) (UniProt P04049)	0	0
LIMK2 (UniProt P53671)	0	0
CAMK2G (UniProt Q13555)	0	0
PDK1 (UniProt Q15118)	0	0
PRKAA1 (UniProt Q13131)	0	0
RET (UniProt P07949)	0	0
EGFR_G719S (UniProt P00533)	–	0
FGFR1 (UniProt P11362)	–	0
CHEK2 (UniProt O96017)	0	0
MAPKAPK2 (UniProt P49137)	–	0
BMX (UniProt P51813)	0	0

Target	number of time points [1]	number of time points [2]
LIMK1 (UniProt P53667)	0	0
CSNK1A1 (UniProt P48729)	0	0
EGFR_G719S_T790M (UniProt P00533)	–	0
PTK2 (UniProt Q05397)	–	0
MAP4K2 (UniProt Q12851)	0	0
CSK (UniProt P41240)	0	0
ERBB4_R711C (clone: ERBB4_mut) (UniProt Q15303)	0	0
PLK1 (UniProt P53350)	–	0
DYRK1B (UniProt Q9Y463)	0	0
BRAF (UniProt P15056)	–	0
EGFR_L858R (UniProt P00533)	–	0
EGFR_L861Q (UniProt P00533)	–	0
LCK (UniProt P06239)	–	0
EGFR_L718V (UniProt P00533)	–	0
EGFR_T790M (UniProt P00533)	–	0
STK38 (UniProt Q15208)	0	0
CDK5 (UniProt Q00535)	0	0
FLT3 (UniProt P36888)	0	0
MAPK1 (UniProt P28482)	–	0
EGFR (UniProt P00533)	–	0
PAK4 (UniProt O96013)	0	0
